Results reported in article PMC3602193.
These are yes or no findings as the source states them, for the method shown. In cells and extracts the contact can be indirect. Some results given as binding are weak or reduced against the parent protein; the word gives no strength. Where a sequence is shown, tags or fusion partners need not be part of it.

By UniProt entry, the sequences of proteins in these tests, tags left out.
UniProt Q8WUM4: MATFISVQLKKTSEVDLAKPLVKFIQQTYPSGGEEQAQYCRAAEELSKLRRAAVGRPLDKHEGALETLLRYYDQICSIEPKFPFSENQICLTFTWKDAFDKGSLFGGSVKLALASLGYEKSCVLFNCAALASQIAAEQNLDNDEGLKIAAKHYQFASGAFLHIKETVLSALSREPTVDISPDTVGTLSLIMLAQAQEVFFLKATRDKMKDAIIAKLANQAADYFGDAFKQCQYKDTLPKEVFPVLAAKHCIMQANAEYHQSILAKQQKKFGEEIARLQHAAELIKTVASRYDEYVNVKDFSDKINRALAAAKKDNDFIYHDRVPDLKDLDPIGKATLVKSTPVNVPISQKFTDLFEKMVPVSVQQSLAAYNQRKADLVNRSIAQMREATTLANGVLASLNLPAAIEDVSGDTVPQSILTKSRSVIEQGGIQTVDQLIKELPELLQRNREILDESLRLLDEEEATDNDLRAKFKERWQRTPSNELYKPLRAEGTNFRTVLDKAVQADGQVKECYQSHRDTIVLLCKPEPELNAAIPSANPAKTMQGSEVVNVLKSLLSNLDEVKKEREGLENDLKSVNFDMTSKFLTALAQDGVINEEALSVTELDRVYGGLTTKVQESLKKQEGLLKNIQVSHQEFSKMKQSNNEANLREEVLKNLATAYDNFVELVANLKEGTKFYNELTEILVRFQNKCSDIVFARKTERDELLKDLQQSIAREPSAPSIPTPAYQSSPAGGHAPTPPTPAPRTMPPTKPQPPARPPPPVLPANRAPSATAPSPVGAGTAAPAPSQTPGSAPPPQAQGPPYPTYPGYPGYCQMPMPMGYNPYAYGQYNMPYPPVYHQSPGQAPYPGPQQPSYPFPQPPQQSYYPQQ

Assays:
[1] = biological target: HA-Alix, full-length human Alix with N-terminal HA tag (human) (UniProt Q8WUM4); test: co-IP; 293 T cells co-transfected with HA-tagged Alix and either Myc-tagged C or Flag-tagged Chmp4b; lysates 48 h later; anti-HA immunoprecipitation; Western blot
[2] = biological target: HA-Alix, full-length human Alix with N-terminal HA tag (human) (UniProt Q8WUM4); test: co-IP; 293 T cells co-transfected with Myc-tagged C, Flag-tagged Chmp4b and HA-tagged Alix all together; lysates 48 h later; anti-HA immunoprecipitation; Western blot

binding [1]: binds
binding [2]: binds
B1: Flag-Chmp4b, human Chmp4b with N-terminal Flag tag (protein, UniProt Q9H444 1-224)
chain: MSVFGKLFGAGGGKAGKGGPTPQEAIQRLRDTEEMLSKKQEFLEKKIEQELTAAKKHGTKNKRAALQALKRKKRYEKQLAQIDGTLSTIEFQREALENANTNTEVLKNMGYAAKAMKAAHDNMDIDKVDELMQDIADQQELAEEISTAISKPVGFGEEFDEDELMAELEELEQEELDKNLLEISGPETVPLPNVPSIALPSKPAKKKEEEDDDMKELENWAGSM
